According to paper PMC8571320:

Target: HSP70 (Solyc01g060400.1.1) (tomato (Solanum lycopersicum)) (UniProt K4AWE3)
Assay: two-hybrid; Matchmaker two-hybrid system (Clontech), S. cerevisiae strain Y-187; prey in pGADT7 (activation domain), bait in pGBKT7 (GAL4 DNA binding domain); growth on triple dropout plates (-Leu -Trp -His) with 5 mM 3AT

Substance | binding
SlBAG1 (from UniProt A0A3Q7FF21) | binds
SlBAG2 (from UniProt A0A3Q7GTX5) | binds

Results are given in words; binding and its absence hold for the method and conditions named. Binding calls can cover weak binding; strength is not graded here.
